Experimental findings from PubChem BioAssay AID2685 (National Center for Advancing Translational Sciences (NCATS), 2010) are described below.

This assay in a line: qHTS Assay for Lipid Storage Modulators in Drosophila S3 Cells.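 For cell number change: cells counted by Cell Tracker Red CMTPX staining in the red channel.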 The conditions noted are these: BODIPY lipid droplet fluorescence, 18-24 h; for cell number change: measured here: cell count max response, cells fed with added oleic acid. The gist of the method: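 Drosophila S3 cells got compounds at several concentrations plus oleic acid (400 uM solution). Laser-scanning cytometry with 488 nm excitation read lipid droplets at 500-530 nm and cells at 575-640 nm. Percent activity was relative to 20 uM Triacsin C.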

[1] abbreviates: measured here: lipid fluorescence (Fed channel) AC50, cells fed with added oleic acid.
The mark [2] stands for this setting: measured here: cell number channel AC50, cells fed with added oleic acid.

Usually AC50 stands for the midpoint of the concentration-response curve, whichever way the signal moves. Read a low AC50 as activity at low concentration.

“And” between values parts separate entries of the source, which are not always exact repeats. Equal entries are not always repeated. The list shows a part of the results. These are further read-outs of the screen, such as a control signal, another cell line or another target. No call is given for them. The list favours compounds with an active or inconclusive main result. The note in brackets gives the kind of curve behind each potency; many fits are weak.

With `CCOC(=O)N1CCN(S(=O)(=O)c2ccc(F)cc2)CC1`, the cell number change stood at 15.1%. For the same compound, the AC50 under setting [1] was 0.116 µM [falling, full curve, poor fit].

Regarding `CC1(N2CCOCC2)C(=O)c2ccccc2C1=O`, the cell number change is -19.6%. Besides, under setting [1], the AC50 was 1.84 µM [falling, full curve]. With `CCCc1cc2c(cc1NC(=O)c1ccc(C(C)(C)C)cc1)OCO2`, the cell number change is -1.65%. Further, the AC50 under setting [1] is 29.1 µM [falling, single point]. Turning to `Cc1ccccc1/C=N/N1CCN(c2ccccc2)CC1`, the cell number change was 7.2%. Moreover, the AC50 under setting [1] was 3.26 µM [rising, partial curve].

`CN(C)/C=N/c1nccc(-c2cccs2)n1`: the cell number change was 3.75%. Take `Cc1ccc(C)c(N2CC(C(=O)O)CC2=O)c1` (centres undefined): the cell number change was -2.66%. Under setting [1], the half-maximal activity concentration (AC50) is 0.517 µM [falling, full curve, poor fit]. With `CCOc1ccc(CCNC(=O)COC(=O)c2cccs2)cc1OCC`, the cell number change is -44.9%. In addition, under setting [2], the AC50 was 4.11 µM [falling, full curve]. For the same compound, the AC50 under setting [1] is 2.31 µM [falling, full curve]. As to `O=[N+]([O-])c1ccc(Cl)c(CN2CCN(c3ncccn3)CC2)c1`, the cell number change was 17.2%. Also, the AC50 under setting [1] was 29.1 µM [rising, single point]. Turning to `Cc1cccc(N2C(=O)CC(SC(N)=Nc3ccccc3)C2=O)c1` (centres undefined), the cell number change was -13.7%. Further, under setting [2], the AC50 was 0.146 µM [falling, full curve, poor fit]. Further, the concentration at half-maximal activity (AC50) under setting [1] is 0.13 µM [falling, full curve]. Consider `CCC(C)[C@H](NC(=O)Nc1ccc(S(N)(=O)=O)cc1)C(=O)OC` (some centres undefined), for which the cell number change is -12.5%. Under setting [1], the AC50 is 1.16 µM [falling, full curve]. For the compound `O=C(CSc1ncccn1)n1c2c(c3ccccc31)CCCC2`, the concentration at half-maximal activity (AC50) under setting [1] was 6.51 µM [rising, single point]. Consider `CCc1cc(=O)oc2c3c(cc(OCC(=O)Nc4cccnc4)c12)OC(C)(C)CC3`, for which the cell number change was -24.3%. Under setting [1], the half-maximal activity concentration (AC50) is 16.4 µM [falling, single point]. Take `COc1ccc(C(C#N)N2N=C(c3ccccc3)CC2c2ccccc2)cc1OC` (centres undefined): the cell number change stood at 56.8%. In addition, the AC50 under setting [2] is 9.2 µM [rising, partial curve, poor fit]. Under setting [1], the concentration at half-maximal activity (AC50) is 5.8 µM [rising, full curve, poor fit]. Consider `O=C(Nc1cc(-c2ccccc2)nn1-c1ccccc1F)c1ccc([N+](=O)[O-])cc1`, for which the cell number change was determined as 53.3%. The concentration at half-maximal activity (AC50) under setting [2] is 32.6 µM [rising, single point]. In addition, the half-maximal activity concentration (AC50) under setting [1] was 23.1 µM [rising, partial curve]. Regarding `N=c1c(C(=O)NC2CCCC2)cc2c(=O)n3ccccc3nc2n1C1CCCCC1`, the cell number change is -5.13%. Consider `CC(C)CC1CCCCC1OC(=O)C[N+]1(C)CCCCC1` (centres undefined), for which the cell number change was determined as 19.4%. Besides, the AC50 under setting [1] was 29.1 µM [rising, single point]. As to `Cc1ccc(CN(C)CC(=O)Nc2ccc3c(c2)CCC3)cc1`, the cell number change was -22.3%. Also, the concentration at half-maximal activity (AC50) under setting [2] was 0.708 µM [falling, full curve, poor fit]. Take `COc1cc(C(=O)O)c([N+](=O)[O-])c(OC)c1OC`: the cell number change is 17.2%. In addition, the AC50 under setting [1] is 1.46 µM [falling, partial curve, poor fit]. Consider `Cc1nc(SCc2ccc(O)c([N+](=O)[O-])c2)c([N+](=O)[O-])[nH]1`, for which the cell number change was found to be 3.7%. Besides, under setting [1], the half-maximal activity concentration (AC50) was 0.0326 µM [falling, full curve, poor fit].

On to `Cc1ccc(S(=O)(=O)N2CCN(C(=O)c3n[nH]c(=O)c4ccccc34)CC2)c(C)c1`, for which the cell number change was -28.1%. The concentration at half-maximal activity (AC50) under setting [1] is 0.103 µM [falling, full curve, poor fit].

On to `Cc1c(Cl)cccc1NC(=O)Nc1c(C)n(C)n(-c2ccccc2)c1=O`, for which the cell number change stood at 11%. Further, under setting [1], the concentration at half-maximal activity (AC50) is 4.11 µM [falling, full curve, poor fit]. Take `Cc1nn(CC(=O)Nc2ccc(Cl)cn2)c(C)c1Br`: the cell number change is -16%. Also, under setting [2], the half-maximal activity concentration (AC50) is 0.0058 µM [rising, full curve, poor fit]. With `COc1cc(OC)c([N+](=O)[O-])cc1/C=N/NC(=O)c1ccncc1`, the cell number change worked out at 12.8%. The half-maximal activity concentration (AC50) under setting [1] is 0.58 µM [rising, partial curve, poor fit].

As for `NC(=O)CCN1CCN(S(=O)(=O)/C=C/c2ccccc2)CC1`, the cell number change came out at 0.417%. On the same count and under the same terms, in the case of `COC(=O)C1C(c2ccc(OC)cc2)C(C(=O)OC)S(=O)(=O)C(CCN2CCCCC2)S1(=O)=O` (centres undefined) it was 4.82%. As to `CCOc1ccc(/C=N/Nc2cc(=O)n(C)c(=O)n2C)cc1`, the cell number change is -14.3%. The concentration at half-maximal activity (AC50) under setting [1] is 0.58 µM [falling, partial curve, poor fit]. On to `COc1cc(C2C(C#N)=C(N)Oc3cc(C)oc(=O)c32)cc2c1OCO2` (centres undefined), for which the cell number change came out at 36.9%. Further, under setting [2], the concentration at half-maximal activity (AC50) was 32.6 µM [rising, partial curve, poor fit]. Regarding `CN1CCN(C(=O)C2CCCN(c3ncnc4c3nc3n4CCCCC3)C2)CC1` (centres undefined), the cell number change was -10.8%. Besides, the concentration at half-maximal activity (AC50) under setting [1] was 0.58 µM [falling, single point]. Turning to `CC1CCCC/C1=N\NC(=S)Nc1ccccc1` (centres undefined), the AC50 under setting [1] was 0.00461 µM [falling, full curve, poor fit]. With `O=C(CCCn1c(=S)[nH]c2cc3c(cc2c1=O)OCO3)N1CCN(c2ccccn2)CC1`, the cell number change was -28.6%. For the same compound, the AC50 under setting [1] was 20.6 µM [falling, single point]. In the case of `Cc1cccc(NC(=S)NC(=O)c2ccc(-c3ccccc3)cc2)n1`, the cell number change was 28.6%. On to `COc1ccc(C2CC(c3cccs3)=NN2C(=O)CSc2nc3c(cnn3-c3ccccc3)c(=O)[nH]2)cc1` (centres undefined), for which the cell number change is -15.1%. Under setting [1], the AC50 was 7.31 µM [rising, partial curve, poor fit]. As to `Cn1c(SCC(=O)Nc2ccc3c(c2)OCCO3)nnc1-c1ccco1`, the cell number change was -15.6%. On to `CC1Cc2nc(SCC(N)=O)n(Cc3ccccc3)c(=O)c2S1` (centres undefined), for which the AC50 under setting [1] is 6.51 µM [falling, single point]. In the case of `C=CCc1cccc(Cl)c1OCCON1C(=O)CCC1=O`, the cell number change was found to be 25.2%. Besides, the concentration at half-maximal activity (AC50) under setting [2] is 0.517 µM [rising, partial curve]. The AC50 under setting [1] was 7.31 µM [rising, partial curve]. With `N#CC1=C(N)Oc2c(sc3ccccc23)C1c1ccco1` (centres undefined), the cell number change is -2.75%. For the same compound, the AC50 under setting [1] was 1.84 µM [rising, full curve, poor fit]. Take `C=CCn1c(NC(C)c2cc(Cl)ccc2O)nc2ccccc21` (centres undefined): under setting [1], the AC50 was 29.1 µM [falling, single point]. `FC(F)(F)c1ccc2c(c1)N1CCCC1CN2` (centres undefined): the cell number change stood at 10.4%. Further, the half-maximal activity concentration (AC50) under setting [1] was 20.6 µM [falling, partial curve, poor fit]. Regarding `O=C(CN1CCOCC1)Nc1ccc([N+](=O)[O-])cc1Br`, the cell number change was -43%. Moreover, the concentration at half-maximal activity (AC50) under setting [1] is 0.1 µM [falling, full curve, poor fit]. On to `C[C@H]1CN=C(N(C)C)N1CCc1ccccc1`, for which the cell number change was 9.17%. For the compound `Cn1c(SCC(=O)NCc2ccc3c(c2)OCO3)nnc1-c1c[nH]c2ccccc12`, the cell number change was -6.27%. Besides, the AC50 under setting [1] was 0.231 µM [rising, full curve]. Turning to `CC(C)(Oc1ccc(Cl)cc1)C(=O)N/N=C/c1cn[nH]c1-c1ccccc1`, the cell number change was -84.9%. In addition, the concentration at half-maximal activity (AC50) under setting [2] is 25.9 µM [falling, single point]. The half-maximal activity concentration (AC50) under setting [1] was 29.1 µM [falling, single point]. As to `NC(=O)c1ccc(NC(=O)CSC2=Nc3ccccc3C3CC=NN23)cc1` (centres undefined), the cell number change worked out at 88.8%. Further, the concentration at half-maximal activity (AC50) under setting [2] is 7.31 µM [rising, partial curve]. In addition, the AC50 under setting [1] was 1.64 µM [rising, partial curve]. Regarding `CCOc1ccccc1NC(=O)c1c(NC(=O)CCC(=O)O)sc2c1CCCCC2`, the cell number change was -29.9%.

For the compound `CCC(Sc1nc(C)cc(C)n1)C(=O)O` (centres undefined), the cell number change was -8.71%. Moreover, the AC50 under setting [1] is 4.61 µM [falling, single point]. For `O=C(Cc1ccc([N+](=O)[O-])cc1)N/N=C/c1ccco1`, the cell number change is -22.7%.

On to `CCOC(=O)c1c(C)[nH]c(C)c1C(=O)Cn1nnc(-c2ccccc2C)n1`, for which the cell number change turned out to be 7.89%. Regarding `CC(C)[C@H](Nc1ccc(S(=O)(=O)N2CCOCC2)cc1[N+](=O)[O-])C(=O)OCC(=O)N(C(C)C)C(C)C`, the cell number change turned out to be 66.7%. For the same compound, under setting [2], the AC50 was 29.1 µM [rising, single point]. Regarding `CCCCC(O)(CCCC)C(=O)NN(C(=O)c1cccnc1Cl)c1ccccc1`, the cell number change was -19.4%. In addition, the AC50 under setting [1] is 6.51 µM [rising, single point]. As to `CN(CC(=O)N1CCN(c2ccccn2)CC1)S(=O)(=O)c1ccc(Cl)cc1`, the cell number change was 22.3%. Take `Cc1cc(=O)oc2ccc(OC(=O)CC(C)C)cc12`: the cell number change is 2.53%. Moreover, under setting [1], the concentration at half-maximal activity (AC50) was 0.206 µM [falling, full curve, poor fit].

With `CC1(C)NC(=O)N(CCOCCOc2ccccc2)C1=O`, the cell number change was -18.9%. Moreover, the half-maximal activity concentration (AC50) under setting [2] was 1.16 µM [falling, full curve, poor fit]. As to `O=c1[nH][nH]c(-c2ccccc2)c1C=Nc1ccc(F)cc1F`, the cell number change was 30.6%. Also, the AC50 under setting [1] was 32.6 µM [rising, single point]. As to `O=S(=O)(CC(c1ccccc1)N1CCCCC1)c1ccc(Cl)cc1` (centres undefined), the cell number change is -2.55%. Moreover, the AC50 under setting [1] is 0.00461 µM [falling, full curve, poor fit]. Take `CCNc1nc(Cl)nc(-c2cn(-c3ccccc3)c3ccccc23)n1`: the concentration at half-maximal activity (AC50) by setting is: under setting [2], 0.164 µM [rising, full curve]; under setting [1], 16.4 µM [falling, single point]. For `CCOC(=O)N1CCN(C(=O)CN(c2ccc(OCC)cc2)S(C)(=O)=O)CC1`, the cell number change stood at 21.8%. As for `Cc1cn([C@H]2C=C[C@@H](CO)O2)c(=O)[nH]c1=O`, the cell number change is -6.1% and -13.1%. Besides, the concentration at half-maximal activity (AC50) under setting [1] is 580 nM [rising, single point] and 3.66 µM [rising, partial curve]. Turning to `CC(=O)c1c(C)[nH]c(C(=O)OCC(=O)N(CC(C)C)C2CCS(=O)(=O)C2)c1C` (centres undefined), the cell number change is 14%. Consider `CSCCCNC(=S)N1CCc2ccccc2C1`, for which the cell number change is -17.8%. In addition, the AC50 under setting [1] is 3.26 µM [falling, partial curve, poor fit]. With `Cc1ccc(N(C)S(=O)(=O)c2cccc(C(=O)NC3CC(C)(C)NC(C)(C)C3)c2)cc1`, the cell number change was found to be 8.84%.

Take `COc1cccc(NS(=O)(=O)c2ccc(-c3coc(C)n3)cc2)c1`: the cell number change was -33.3%. Besides, the concentration at half-maximal activity (AC50) under setting [2] was 16.4 µM [falling, single point]. The half-maximal activity concentration (AC50) under setting [1] was 29.1 µM [falling, single point]. As for `CCCOc1ccc(NC(=O)CC2C(=O)OCC3CCCCN32)cc1` (centres undefined), the cell number change came to 2.28%. For the same compound, the AC50 under setting [1] is 0.0058 µM [rising, full curve, poor fit].
